Measurements taken from the supplement of paper PMC8426693.
The list shows a part of the results.

Assays:
Experiment in all cases: NMR binding call after quantification (hit when 2 of 3 NMR criteria are met) (binary (1 = binding, 0 = not binding)); higher = binding
Details in all cases: RNA concentration 10 µM; fragment concentration 200 µM; 293 K
[1] = tested on: SARS-CoV-2 5_SL7 RNA
[2] = tested on: SARS-CoV-2 5_SL8 RNA
[3] = tested on: SARS-CoV-2 attenuator hairpin (att HP) RNA
[4] = tested on: SARS-CoV-2 frameshift pseudoknot (PK) RNA

Measured: NMR binding call

NC(=O)N1CCN(C(=O)c2ccco2)CC1
0: [1] | [2] | [3] | [4]

Cc1cccc(Nc2ncnc3c2cnn3C)c1
0: [1] | [2] | [3] | [4]

COC(=O)c1ccc(NC(=O)C2CCCC2)cc1
0: [1] | [2] | [3] | [4]

CC(=O)Nc1ccc(CN2CCOCC2)cc1
0: [1] | [2] | [3] | [4]

CC(O)CNC1CCCCC1 (configuration not stated)
0: [1] | [2] | [3] | [4]

COCC(=O)Nc1cccc(NC(C)=O)c1
0: [1] | [2] | [3] | [4]

O=C(C1CC1)N1CCN(c2ccc(F)cc2)CC1
0: [1] | [2] | [3] | [4]

O=S1(=O)CCCN1Cc1cccc(F)c1
0: [1] | [2] | [3] | [4]

CCOC(=O)c1sc(N(C)C(C)=O)nc1C
0: [1] | [2] | [3] | [4]

c1cc(CN2CCNCC2)no1
0: [1] | [2] | [3] | [4]

Cc1nc(CN2CCC(CN)CC2)cs1
0: [1] | [2] | [3] | [4]

COc1ccc(NCc2ccc(F)cc2)cc1
0: [1] | [2] | [3] | [4]

COc1ccc(CCC2(C)NC(=O)NC2=O)cc1 (configuration not stated)
0: [1] | [2] | [3] | [4]

Cc1nccn1Cc1cccc(C#N)c1
0: [1] | [2] | [3] | [4]

Fc1cccc(CN2CCOCC2)c1
0: [1] | [2] | [3] | [4]

Cc1noc(C)c1C(=O)NCCC1=CCCCC1
0: [1] | [2] | [3] | [4]

CCOc1ccc(C(=O)Nc2cc(C)on2)cc1
0: [1] | [2] | [3] | [4]

CCn1c(NC(C)=O)nc2ccccc21
0: [1] | [2] | [3] | [4]

CC(CO)Nc1ncc(Cl)cc1F (configuration not stated)
0: [1] | [2] | [3] | [4]

CS(=O)(=O)N1CCCC1CN (configuration not stated)
0: [1] | [2] | [3] | [4]

Cn1nnc(NC(=O)c2ccc(Cl)cc2)n1
0: [1] | [2] | [3] | [4]

CC(C)CC(=O)NCc1ccc2c(c1)OCO2
0: [1] | [2] | [3] | [4]

CCS(=O)(=O)NCc1ccc2c(c1)OCO2
0: [1] | [2] | [3] | [4]

CS(=O)(=O)N1CCC(O)CC1
0: [1] | [2] | [3] | [4]

CCCn1nnnc1NC(=O)c1ccco1
0: [1] | [2] | [3] | [4]

Cn1ccc(C(=O)Nc2cccc(C(=O)O)c2)n1
0: [1] | [2] | [3] | [4]

CC(=O)NC1CCC(N)CC1 (configuration not stated)
0: [1] | [2] | [3] | [4]

CC(=O)N1CCOC(CO)C1 (configuration not stated)
0: [1] | [2] | [3] | [4]

CCN1CCN(C(=O)NC2CCCCC2)CC1
0: [1] | [2] | [3] | [4]

CC(C)N(C)S(=O)(=O)N1CCNC(=O)C1
0: [1] | [2] | [3] | [4]

CC(O)C(=O)NCc1ccccn1 (configuration not stated)
0: [1] | [2] | [3] | [4]

CC(C)N1CCCC(CO)C1 (configuration not stated)
0: [1] | [2] | [3] | [4]

12 entries already listed, ordered by molecular weight, high to low:
Cn1ccc(C(=O)Nc2cccc(C(=O)O)c2)n1
0: [1] | [2] | [3] | [4]

CCS(=O)(=O)NCc1ccc2c(c1)OCO2
0: [1] | [2] | [3] | [4]

Cn1nnc(NC(=O)c2ccc(Cl)cc2)n1
0: [1] | [2] | [3] | [4]

CC(C)N(C)S(=O)(=O)N1CCNC(=O)C1
0: [1] | [2] | [3] | [4]

CCCn1nnnc1NC(=O)c1ccco1
0: [1] | [2] | [3] | [4]

CC(CO)Nc1ncc(Cl)cc1F (configuration not stated)
0: [1] | [2] | [3] | [4]

CCn1c(NC(C)=O)nc2ccccc21
0: [1] | [2] | [3] | [4]

CC(O)C(=O)NCc1ccccn1 (configuration not stated)
0: [1] | [2] | [3] | [4]

CS(=O)(=O)N1CCC(O)CC1
0: [1] | [2] | [3] | [4]

CS(=O)(=O)N1CCCC1CN (configuration not stated)
0: [1] | [2] | [3] | [4]

CC(C)N1CCCC(CO)C1 (configuration not stated)
0: [1] | [2] | [3] | [4]

CC(=O)NC1CCC(N)CC1 (configuration not stated)
0: [1] | [2] | [3] | [4]

(continued)

COc1ccc(CC(=O)Nc2nncs2)cc1
0: [1] | [2] | [3] | [4]

CS(=O)(=O)Nc1ccc(C(N)=O)cc1
0: [1] | [2] | [3] | [4]

CC(C)(C)NC(=O)N1CCC(C(N)=O)CC1
0: [1] | [2] | [3] | [4]

CN1CCN(CCN)CC1(C)C
0: [1] | [2] | [3] | [4]

Cc1cccc(N2CCNC(C)C2)n1 (configuration not stated)
0: [1] | [2] | [3] | [4]

O=C(NCC1CCCO1)N1CCOCC1 (configuration not stated)
0: [1] | [2] | [3] | [4]

CC(C)Nc1nc2ccccc2[nH]1
0: [1] | [2] | [3] | [4]

CC1CCC(C(=O)N2CCC=C(F)C2)O1 (configuration not stated)
0: [1] | [2] | [3] | [4]

CC(C)c1nnc(NCC(C)(C)C)s1
0: [1] | [2] | [3] | [4]

O=C(Nc1nncs1)c1ccccc1F
0: [1] | [2] | [3] | [4]

NC(=O)C(O)C1CCOCC1 (configuration not stated)
0: [1] | [2] | [3] | [4]
